Assay results as given in patent US20090054325A1.
Numbering of substitutions follows the chain as printed. In names and notes the source's numbering stands. These are yes or no findings as the source states them, for the method shown. In cells and extracts the contact can be indirect. Binding can be weak; no strength is given.

B1: full length wild-type human NgR protein (receptor)
chain: CPGACVCYNEPKVTTSCPQQGLQAVPVGIPAASQRIFLHGNRISHVPAASFRACRNLTILWLHSNVLARIDAAAFTGLALLEQLDLSDNAQLRSVDPATFHGLGRLHTLHLDRCGLQELGPGLFRGLAALQYLYLQDNALQALPDDTFRDLGNLTHLFLHGNRISSVPERAFRGLHSLDRLLLHQNRVAHVHPHAFRDLGRLMTLYLFANNLSALPTEALAPLRALQYLRLNDNPWVCDCRARPLWAWLQKFRGSSSEVPCSLPQRLAGRDLKRLAANDLQGCAVATGPYHPIWTGRATDEEPLGLPKCCQPDAADKASVLEPGRPASAGNALKGRVPPGDSPPGNGSGPRHINDSPFGTLPGSAEPPLTAVRPEGSEPPGFPTSGPRRRPGCSRKNRTRSHCRLGQAGSGGGGTGDSEGS
B2: NgR-R377W mutant protein (receptor)
chain: B1 chain with R351W
B3: NgR-R377Q mutant protein (receptor)
chain: B1 chain with R351Q

target: p75NTR; test: co-immunoprecipitation

binding, binds:
B1, B2, B3

target: Lingo-1 (Homo sapiens (Human)); test: co-immunoprecipitation

binding, binds:
B1, B2, B3
